The list is a part of this screen's results and no random one: it gathers tests that were run many times, whatever their T/C, doses with no T/C, and many T/C values between a quarter and a half above the control. Other doses and runs of a compound stand elsewhere. T/C is the treated group as % of the vehicle group. Some entries give survivors of the animals treated and no T/C: the source files T/C as zero there, which appears to mark a toxic dose or a test without result, not a measured value. Some survivor counts are full or nearly so, which does not show that the dose was tolerated: survival well below the control is almost never listed, so the zero probably covers shortened survival too. Survivors were counted at the toxicity check, usually on the fifth day, unless a day is given; later deaths do not show. Schedule codes are those of the source, read here as Q, the interval in days (D) or hours (H), X, the number of doses. Some doses were run more than once; the results are listed from low to high. For survival time, the PubChem record calls one and a half times the control and up active, and a quarter to a half above the control has no call in these data; cut-offs in other NCI protocols can differ. Some T/C values carry the count of animals alive at the toxicity check (mostly the fifth day); where none is given, no animal had died by that day. Some schedules carry Z or #; the key to these is not given.
System: L1210 leukemia ip in BDF1 mice, survival T/C
Test: NCI In Vivo Anticancer Drug Screen. Data for tumor model L1210 Leukemia (intraperitoneal) in B6D2F1 (BDF1) mice
Details: T/C endpoint: mean survival time, higher T/C = longer survival
[1] = dose: 200.0 mg/kg/injection, schedule: Q01DX001 (ip), vehicle: carboxymethylcellulose (CMC)
[2] = dose: 400.0 mg/kg/injection, schedule: Q01DX001 (ip), vehicle: carboxymethylcellulose (CMC)
[3] = dose: 400.0 mg/kg/injection, schedule: Q01DX001 (ip), vehicle: saline
[4] = dose: 200.0 mg/kg/injection, schedule: Q01DX009 (ip), vehicle: Klucel (hydroxypropylcellulose) (HPC)
[5] = dose: 300.0 mg/kg/injection, schedule: Q01DX001 (ip), vehicle: saline

NC1(C(=O)O)CCCc2ccc(N(CCCl)CCCl)cc21 (configuration not stated)
T/C (dose: 0.9 mg/kg/injection, schedule: Q01DX009 (ip), vehicle: carboxymethylcellulose (CMC)): 127 % of control
T/C (dose: 1.89 mg/kg/injection, schedule: Q01DX009 (ip), vehicle: carboxymethylcellulose (CMC)): 136 % of control
T/C (dose: 3.6 mg/kg/injection, schedule: Q01DX009 (ip), vehicle: carboxymethylcellulose (CMC), evaluated on day 30): 133 % of control
T/C (dose: 3.6 mg/kg/injection, schedule: Q01DX009 (ip), vehicle: carboxymethylcellulose (CMC), run until all animals had died): 134 % of control
T/C (dose: 3.78 mg/kg/injection, schedule: Q01DX009 (ip), vehicle: carboxymethylcellulose (CMC)): 139 % of control
T/C (dose: 5.5 mg/kg/injection, schedule: Q01DX009 (ip), vehicle: carboxymethylcellulose (CMC), evaluated on day 30): 136 % of control
T/C (dose: 5.5 mg/kg/injection, schedule: Q01DX009 (ip), vehicle: carboxymethylcellulose (CMC), run until all animals had died): 132 % of control
T/C (dose: 6.48 mg/kg/injection, schedule: Q01DX009 (ip), vehicle: carboxymethylcellulose (CMC)): 147 % of control
T/C (dose: 8.3 mg/kg/injection, schedule: Q01DX009 (ip), vehicle: carboxymethylcellulose (CMC)): 135 % of control [5 of 6 alive]
T/C (dose: 12.0 mg/kg/injection, schedule: Q01DX001 (ip), vehicle: carboxymethylcellulose (CMC)): 137 % of control
T/C (dose: 16.6 mg/kg/injection, schedule: Q01DX001 (ip), vehicle: carboxymethylcellulose (CMC)): 133 % of control
T/C (dose: 24.0 mg/kg/injection, schedule: Q01DX001 (ip), vehicle: carboxymethylcellulose (CMC)): 130 and 141 % of control [5 of 6 alive]
T/C (dose: 25.0 mg/kg/injection, schedule: Q01DX001 (ip), vehicle: carboxymethylcellulose (CMC)): 137 and 149 % of control
survivor count (dose: 25.0 mg/kg/injection, schedule: Q01DX009 (ip), vehicle: carboxymethylcellulose (CMC)): 4 of 6
T/C (dose: 36.0 mg/kg/injection, schedule: Q01DX001 (ip), vehicle: carboxymethylcellulose (CMC)): 135 % of control
survivor count (dose: 36.0 mg/kg/injection, schedule: Q01DX009 (ip), vehicle: carboxymethylcellulose (CMC)): 5 of 6
survivor count (dose: 37.5 mg/kg/injection, schedule: Q01DX001 (ip), vehicle: carboxymethylcellulose (CMC)): 2 of 6
survivor count (dose: 72.0 mg/kg/injection, schedule: Q01DX009 (ip), vehicle: carboxymethylcellulose (CMC)): 5 of 6
survivor count (dose: 96.0 mg/kg/injection, schedule: Q01DX001 (ip), vehicle: carboxymethylcellulose (CMC)): 0 of 6
survivor count (dose: 100.0 mg/kg/injection, schedule: Q01DX001 (ip), vehicle: carboxymethylcellulose (CMC)): 0 of 6 and 2 of 6
survivor count [1]: 0 of 6
survivor count [2]: 1 of 6

O=Nc1ccc(N(CCO)CCO)cc1
survivor count (dose: 50.0 mg/kg/injection, schedule: Q01DX001 (ip), vehicle: saline): 0 of 4
survivor count (dose: 80.0 mg/kg/injection, schedule: Q01DX001 (ip), vehicle: saline): 0 of 4
survivor count (dose: 100.0 mg/kg/injection, schedule: Q01DX001 (ip), vehicle: saline): 0 of 4
survivor count (dose: 200.0 mg/kg/injection, schedule: Q01DX001 (ip), vehicle: saline): 0 of 4
survivor count [3]: 0 of 4

CC(CN(C)C)C(=O)/C=C/c1ccccc1 (configuration not stated)
survivor count (dose: 75.0 mg/kg/injection, schedule: Q01DX009 (ip), vehicle: saline): 6 of 6
survivor count (dose: 100.0 mg/kg/injection, schedule: Q04DX003 (ip), vehicle: saline): 6 of 6
survivor count (dose: 115.0 mg/kg/injection, schedule: Q01DX009 (ip), vehicle: saline): 3 of 6
survivor count (dose: 170.0 mg/kg/injection, schedule: Q01DX009 (ip), vehicle: saline): 0 of 6
survivor count (dose: 200.0 mg/kg/injection, schedule: Q04DX003 (ip), vehicle: saline): 0 of 6
survivor count (dose: 400.0 mg/kg/injection, schedule: Q04DX003 (ip), vehicle: saline): 0 of 6

COC(CBr)c1ccccc1 (configuration not stated)
survivor count (dose: 150.0 mg/kg/injection, schedule: Q01DX009 (ip), vehicle: Klucel (hydroxypropylcellulose) (HPC)): 0 of 6
survivor count (dose: 225.0 mg/kg/injection, schedule: Q01DX009 (ip), vehicle: Klucel (hydroxypropylcellulose) (HPC)): 0 of 6
survivor count (dose: 335.0 mg/kg/injection, schedule: Q01DX009 (ip), vehicle: Klucel (hydroxypropylcellulose) (HPC)): 0 of 6

O=C1C=CC(=O)N1c1ccc2c(c1)oc(=O)c1ccccc12
survivor count (dose: 75.0 mg/kg/injection, schedule: Q01DX009 (ip), vehicle: saline with Tween-80): 3 of 6
survivor count (dose: 150.0 mg/kg/injection, schedule: Q01DX009 (ip), vehicle: saline with Tween-80): 2 of 6
survivor count [3]: 1 of 6

C=CCSC(C)CC (configuration not stated)
survivor count (dose: 400.0 mg/kg/injection, schedule: Q04DX003 (ip), vehicle: saline with Tween-80): 6 of 6

OCC1CC(n2cnc3c(=S)nc[nH]c32)C(O)C1O (configuration not stated)
survivor count [3]: 2 of 4

O=C(NC(=S)Nc1cccc(F)c1)c1cccc([N+](=O)[O-])c1
survivor count (dose: 400.0 mg/kg/injection, schedule: Q01DX001 (ip), vehicle: saline with Tween-80): 3 of 6

CCCCCCCC(=O)N(C)OC
survivor count [4]: 4 of 6

C=Cn1cc[n+](Cc2ccccc2)c1C
survivor count (dose: 100.0 mg/kg/injection, schedule: Q04DX002 (ip), vehicle: Klucel (hydroxypropylcellulose) (HPC)): 0 of 6
survivor count (dose: 100.0 mg/kg/injection, schedule: Q04DX002 (ip), vehicle: saline): 0 of 3 and 0 of 6
survivor count (dose: 200.0 mg/kg/injection, schedule: Q04DX002 (ip), vehicle: Klucel (hydroxypropylcellulose) (HPC)): 0 of 6
survivor count (dose: 200.0 mg/kg/injection, schedule: Q04DX002 (ip), vehicle: saline): 0 of 3 and 0 of 6
survivor count (dose: 400.0 mg/kg/injection, schedule: Q04DX002 (ip), vehicle: Klucel (hydroxypropylcellulose) (HPC)): 0 of 6
survivor count (dose: 400.0 mg/kg/injection, schedule: Q04DX002 (ip), vehicle: saline): 0 of 3 and 0 of 6

CCOC(=O)c1cnn2c(SC)ncnc12
survivor count (dose: 200.0 mg/kg/injection, schedule: Q01DX009 (ip), vehicle: saline with Tween-80): 4 of 6

CC1=Nc2ccccc2/C1=C\c1c(C)[nH]c2ccccc12
survivor count (dose: 100.0 mg/kg/injection, schedule: Q01DX009 (ip), vehicle: acetone): 3 of 6
survivor count (dose: 200.0 mg/kg/injection, schedule: Q01DX009 (ip), vehicle: acetone): 0 of 6
survivor count (dose: 400.0 mg/kg/injection, schedule: Q04DX003 (ip), vehicle: acetone): 2 of 6

O=C(CCl)NCC(O)CNC(=O)CCl
T/C (dose: 60.0 mg/kg/injection, schedule: Q01DX Z (ip), vehicle: saline): 135 % of control

O=c1ncc2[nH]c(I)nc2[nH]1
survivor count [1]: 0 of 6
survivor count [2]: 2 of 6

CC1=CC(=O)NP(=O)(OC2CCCCC2)N1 (configuration not stated)
survivor count (dose: 50.0 mg/kg/injection, schedule: Q01DX005 (ip), vehicle: sodium bicarbonate): 2 of 3
survivor count (dose: 200.0 mg/kg/injection, schedule: Q01DX005 (ip), vehicle: sodium bicarbonate): 3 of 3

CCCCSP(Oc1ccccc1)SCCCC
survivor count [4]: 6 of 6
survivor count (dose: 400.0 mg/kg/injection, schedule: Q01DX009 (ip), vehicle: Klucel (hydroxypropylcellulose) (HPC)): 0 of 6

Cc1cnc(C(=O)O)c(N)n1
survivor count [5]: 3 of 6

CC(NC(=O)NCCCl)c1ccco1 (configuration not stated)
survivor count [4]: 1 of 6
survivor count (dose: 400.0 mg/kg/injection, schedule: Q04DX003 (ip), vehicle: Klucel (hydroxypropylcellulose) (HPC)): 0 of 6

C/C=C1/CN2CCC1CC2C(O)c1ccnc2ccc(O)cc12 (configuration not stated)
survivor count (dose: 150.0 mg/kg/injection, schedule: Q01DX001 (ip), vehicle: saline): 3 of 6
survivor count [5]: 0 of 6

COc1cc2cc3cc4cc(OC)c(OC)cc4c(C)[n+]3cc2cc1OC (tested in a mixture with another compound)
T/C (dose: 20.0 mg/kg/injection, schedule: Q01DX009 (ip), vehicle: saline): 130 % of control [5 of 6 alive]
survivor count (dose: 160.0 mg/kg/injection, schedule: Q01DX009 (ip), vehicle: saline): 5 of 6
